Results as given in PubChem BioAssay AID504834 (National Center for Advancing Translational Sciences (NCATS), 2011).
About 22,000 (6.9%) of roughly 320,000 compounds were called active. The shares of active, inactive and inconclusive entries below differ from those in the screen. Calls come from the whole dose curve; as a rule, active = well fitted inhibition curve with a large enough effect; inconclusive = small, poorly fitted or top-dose-only effect, or another doubt; inactive = no such curve, though single readings can be large or run the other way. A potency beside an inconclusive call is a rough fit, not a confirmed value. Some compounds were tested as several samples or in several runs, with calls that do not always agree.

Experiment: Primary qHTS for delayed death inhibitors of the malarial parasite plastid, 96 hour incubation
Conditions: P. falciparum luciferase reporter growth; series mostly up to 28.7 µM
How it was run: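 Infected RBCs, 2% Hct / 0.05% parasitemia final; luciferase-reporter P. falciparum; cpd 96 h, 37 C, 5% CO2; luciferase detection reagent; luminescence.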
% is set by controls: 0 for no effect and ±100 for the full control effect; potency is the fitted concentration of half-maximal effect.

Row | Structure (SMILES) | Potency | activity change, negative = inhibition
1 | CC1CN(S(=O)(=O)c2cccc(C(=O)NCc3ccco3)c2)CC(C)O1 (configuration not stated) | inconclusive: 11.7 µM [inhibitor, single point] | –
2 | Cc1[nH]n(-c2ccccc2)c(=O)c1C(C[N+](=O)[O-])c1ccc(Cl)cc1 (configuration not stated) | inconclusive: 16.5 µM [inhibitor, single point] | –
3 | COc1ccc(CCCNC(=O)C2CCC(=O)N(CCc3cccc(F)c3)C2)cc1 (configuration not stated) | active: 4.15 µM | –
4 | CCOC(=O)C1(c2ccccc2)CCN(Cc2cccc(C(=O)O)c2)CC1 | inconclusive: 11.7 µM [inhibitor, partial curve] | –
5 | O=C(CCCCCn1c(=S)[nH]c2ccc(N3CCOCC3)cc2c1=O)NCc1ccc2c(c1)OCO2 | – | inactive: 3.55% [at 5.75 µM]
6 | O=C(NCc1ccccn1)C(=O)NCC1OCCCN1S(=O)(=O)c1cc(F)ccc1F (configuration not stated) | inactive | –
7 | CN1/C(=C\C=Nc2cc(S(=O)(=O)N3CCOCC3)ccc2N2CCOCC2)C(C)(C)c2ccccc21 | active: 8.28 µM | –
8 | COc1ccc(OCCNC(=S)Nc2cccc3ccccc23)cc1 | inconclusive: 13.1 µM [inhibitor, single point] | –
9 | CNS(=O)(=O)c1ccc(OC)c(-c2nnc3c4ccccc4c(C)nn23)c1 | inconclusive: 9.28 µM [inhibitor, single point] | –
10 | COc1ccc(CNS(=O)(=O)c2ccc3c(c2)NC(=O)C(C)S3)cc1 (configuration not stated) | inconclusive: 9.28 µM [inhibitor, partial curve] | –
11 | Cc1ncc(CN2CCC(N3CCC(C(=O)N4CCCC4)CC3)CC2)s1 | inactive | –
12 | Cc1cccc(NC(=O)C2CCCN(c3ncnc4c3nc3n4CCCCC3)C2)n1 (configuration not stated) | inconclusive: 3.7 µM [inhibitor, partial curve] | –
13 | COc1ccc(/C=C2\N=C(SC)NC2=O)cc1 | inactive | –
14 | CCC(C)NC(=O)C1c2ccccc2C(=O)N1Cc1ccc(OC)cc1OC (configuration not stated) | inconclusive: 18.5 µM [inhibitor, single point] | –
15 | N#Cc1ccc(S(=O)(=O)NC2CCCCNC2=O)cc1 (configuration not stated) | inactive | –
16 | Cc1ccc(C)c(OCCC(=O)OCC(=O)NC(=O)NC2CCCC2)c1 | inactive | –
17 | O=C(NCCN1CCN(c2ccccc2)CC1)c1ccc(NC(=O)C2CCCO2)cc1 (configuration not stated) | inconclusive: 1.47 µM [inhibitor, partial curve] | –
18 | Cc1ccc(S(=O)(=O)N2CCOCC2)cc1NC(=O)COc1ccc2c(C)cc(=O)oc2c1 | active: 9.28 µM | –
19 | Cc1cccc(-n2c(C)nc3cc(C(=O)NCc4ccc5c(c4)OCO5)ccc32)c1 | inconclusive: 18.5 µM [inhibitor, single point] | –
20 | O=C(Cn1[nH]c(=O)c2ccccc2c1=O)N1CCN(S(=O)(=O)c2ccc(Cl)cc2)CC1 | inconclusive: 4.65 µM [inhibitor, partial curve, poor fit] | –
21 | O=C1COc2ccc(C(=O)COC(=O)c3nc(Cl)ccc3Cl)cc2N1 | inactive | –
22 | Cc1ccc(Cl)cc1N1CCN(C(=O)CSc2nnc3n2C(C)(C)Cc2ccccc2-3)CC1 | inconclusive: 4.65 µM [inhibitor, partial curve, poor fit] | –
23 | O=C(COC(=O)c1cc(Br)ccc1O)Nc1ccc2c(c1)OCO2 | inactive | –
24 | Cc1ccc(S(=O)(=O)C2C(=O)N(C)C3(C)CC2c2ccccc2O3)cc1 (configuration not stated) | inactive | –

Row | Structure (SMILES) | Potency | activity change, negative = inhibition
25 | CCOC(=O)c1cnc2sc3c(n2c1=O)CCCC3 | inconclusive: 18.5 µM [inhibitor, single point] | –
26 | CCOc1ccccc1/C=C/c1onc(C)c1S(=O)(=O)N1CCC(C(=O)NC(C)(C)C)CC1 | inactive | –
27 | Cc1cc(Cl)c(S(=O)(=O)NC(C(=O)O)C(C)C)cc1OCC(=O)NC1CCCCC1 (configuration not stated) | inactive | –
28 | CC1=Nc2ccccc2N=C(NC(=O)c2ccccc2)C1c1ccccc1 (configuration not stated) | inconclusive: 18.5 µM [inhibitor, single point] | –
29 | Cc1ccc([N+](=O)[O-])cc1NC(=O)c1cccs1 | inactive | –
30 | CSc1ccccc1C(=O)C1CCCN(C(=O)c2cncs2)C1 (configuration not stated) | inconclusive: 5.22 µM [inhibitor, partial curve, poor fit] | –
31 | Cc1cccnc1NC(=O)/C=C/c1ccc2c(c1)OCO2 | active: 10.4 µM | –
32 | CC(C)N1C/C(=C/c2ccsc2)C(=O)/C(=C/c2ccsc2)C1 | inconclusive: 18.5 µM [inhibitor, single point] | –
33 | COc1ccc2cc3c(N)nn(C(=O)Cc4c[nH]c5ccccc45)c3nc2c1 | inconclusive: 2.08 µM [inhibitor, full curve] | –
34 | CCOc1ccc(C(=O)NCC(=O)N2CCc3ccccc3C2)cc1OCC | inactive | –
35 | O=C(c1ccc(Cl)c(S(=O)(=O)N2CCOCC2)c1)N(Cc1ccco1)Cc1cccs1 | active: 2.62 µM | –
36 | CC1=C(C(=O)Nc2ccc(CC(=O)NCc3ccc(OC(C)C)cc3)cc2)SCCO1 | inconclusive: 13.1 µM [inhibitor, single point] | –
37 | Cc1ccc(N=Cc2c(O)n(-c3nccs3)c(=O)c3ccccc23)cc1 | inconclusive: 18.5 µM [inhibitor, single point] | –
38 | COc1cc(NC(=O)CN(C)Cc2ccc(OC(F)F)cc2)c(C)cc1[N+](=O)[O-] | inconclusive: 11.7 µM [inhibitor, single point] | –
39 | COc1ccccc1CC(=O)NC12CC3CC(CC(C3)C1)C2 | inconclusive: 18.5 µM [inhibitor, single point] | –
40 | COC(=O)Cc1ccc(N(Cc2ccccc2F)S(=O)(=O)c2ccc(Br)cc2)cc1 | inconclusive: 18.5 µM [inhibitor, partial curve, poor fit] | –
41 | Cc1sc2nc(SCC(=O)N(C)c3ccccc3)n(C)c(=O)c2c1C | inactive | –
42 | CC(C)(C)c1ccc(-c2n[nH]c(=S)n2Cc2ccccc2)cc1 | inconclusive: 0.0657 µM [inhibitor, full curve, poor fit] | –
43 | CCOC(=O)c1nnn(-c2nonc2N)c1-c1ccc(Br)cc1 | inactive | –
44 | O=C(Nc1cccc(F)c1)C1CCCN(C(=O)c2ccc(Cl)cc2)C1 (configuration not stated) | inconclusive: 18.5 µM [inhibitor, single point] | –
45 | O=C(CSC1=Nc2ccccc2C2=NC(CC(=O)NCc3ccco3)C(=O)N12)NCc1ccco1 (configuration not stated) | active: 1.85 µM | –
46 | CC(=O)c1cccc(N2C(=NC(=O)C3CCCCC3)SC3CS(=O)(=O)CC32)c1 (configuration not stated) | inactive | –
47 | COc1ccc(-c2cc(-c3ccccc3)nc(SCC(=O)Nc3ncc(C)s3)c2C#N)cc1 | inconclusive: 13.1 µM [inhibitor, single point] | –
48 | Cc1ccc(S(=O)(=O)N2CCCCC2)cc1C(=O)NCCCN1CCOCC1 | inactive | –

An excerpt from above in order of length of the SMILES, high to low:
Row | Structure (SMILES) | Potency | activity change, negative = inhibition
35 | O=C(c1ccc(Cl)c(S(=O)(=O)N2CCOCC2)c1)N(Cc1ccco1)Cc1cccs1 | active: 2.62 µM | –
36 | CC1=C(C(=O)Nc2ccc(CC(=O)NCc3ccc(OC(C)C)cc3)cc2)SCCO1 | inconclusive: 13.1 µM [inhibitor, single point] | –
41 | Cc1sc2nc(SCC(=O)N(C)c3ccccc3)n(C)c(=O)c2c1C | inactive | –
30 | CSc1ccccc1C(=O)C1CCCN(C(=O)c2cncs2)C1 (configuration not stated) | inconclusive: 5.22 µM [inhibitor, partial curve, poor fit] | –

The results go on:

Row | Structure (SMILES) | Potency | activity change, negative = inhibition
49 | Cc1ccc(S(=O)(=O)N2CCCC2CNC(=O)c2ccc(F)c(F)c2)cc1 (configuration not stated) | inconclusive: 11.7 µM [inhibitor, partial curve] | –
50 | CC(=O)c1c(C)[nH]c(C(=O)OCc2cccc(C)c2)c1C | inactive | –
51 | Fc1ccc(N=Cc2ccc[nH]2)cc1 | inactive | –
52 | CC(=O)NCCc1nc2cc(NC(=O)c3ccccc3C)ccc2n1C | inconclusive: 20.8 µM [inhibitor, partial curve, poor fit] | –
54 | Cc1nnc(SCC(=O)Nc2cc(S(C)(=O)=O)ccc2Cl)n1Cc1ccccc1 | inconclusive: 1.31 µM [inhibitor, partial curve, poor fit] | –
55 | Cc1ccc(CN2CCN(Cc3cccc(OCCO)c3)CC2CCO)o1 (configuration not stated) | inconclusive: 18.5 µM [inhibitor, partial curve, poor fit] | –
56 | CC(=O)N(Cc1nc2sc(C)c(C)c2c(=O)[nH]1)C1CCCC1 | inactive | –
57 | CCCCCCCCCCCC[n+]1ccc2ccccc2c1 | active: 3.01 µM | –
58 | Cc1ccccc1C(=O)NN(C)c1nc2ccccc2nc1C(F)(F)F | inactive | –
59 | COc1ccc(CNC(=O)c2cccnc2Sc2ccc(Cl)cc2)cc1 | inactive | –
60 | COc1cc(S(=O)(=O)Nc2cccc3cn[nH]c23)c(OC)cc1C | active: 2.94 µM | –
61 | Cc1nn2c(NCCCN(C)C)c3c(nc2c1-c1ccccc1)CCCC3 | active: 8.28 µM | –
62 | O=C(c1ccc(F)cc1)N1CCN(C(=O)c2cccnc2)CC1 | inconclusive: 10.4 µM [inhibitor, partial curve, poor fit] | –
63 | CN(C)S(=O)(=O)N(CC(=O)N1CCN(Cc2ccccc2)CC1)c1ccccc1 | inactive | –
64 | Nc1nc2c(Cl)ccc(Cl)c2s1 | active: 8.28 µM | –
65 | COc1cc(OC)cc(C(=O)NNC(=O)CCc2nc3ccccc3c(=O)[nH]2)c1 | inconclusive: 18.5 µM [inhibitor, single point] | –
66 | CCCn1nc(C(=O)OCC(=O)c2c(N)n(C)c(=O)n(C)c2=O)c2ccccc2c1=O | inconclusive: 18.5 µM [inhibitor, partial curve, poor fit] | –
67 | Cc1cccnc1CN1CCN(C(=O)c2cc(COc3ccc4ncccc4c3)on2)CC1 | inconclusive: 18.5 µM [inhibitor, single point] | –
68 | CCOC(=O)C1=C(CSc2nc(C)ccc2C#N)OC(N)=C(C#N)C1c1cccc(OC)c1OC (configuration not stated) | active: 6.57 µM | –
69 | CC1CN(CC(=O)Nc2cc(S(=O)(=O)N3CCCC3)ccc2Cl)CC(C)O1 (configuration not stated) | inconclusive: 14.7 µM [inhibitor, partial curve, poor fit] | –
70 | COc1ccccc1CNS(=O)(=O)c1ccc(S(=O)(=O)NC2CC2)cc1 | inconclusive: 2.33 µM [inhibitor, partial curve] | –
71 | COc1ccccc1CCCNC(=O)C1CCC(=O)N(Cc2ccccc2F)C1 (configuration not stated) | inconclusive: 18.5 µM [inhibitor, single point] | –
72 | CCCC(=O)Nc1ccc(C(=O)Nc2ccc([N+](=O)[O-])cc2OC)cc1 | inactive | –
